Measurements reported in PubChem BioAssay AID743454 (Peter MacCallum Cancer Centre, 2014)

Assay: 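Search for knock-downs that restore vorinostat killing in resistant colon cancer cells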 (primary screen)
Cells: human HCT116-VR colon cancer cells, selected for vorinostat resistance
Knock-down reagent: siRNA pool against human genes, 40 nM siRNA pool
Timing: vorinostat for 24 h, read-out about 72 h after transfection
Conditions: vorinostat at 2.5 µM final
Measured: 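Cell viability by CellTiter-Fluor and caspase 3/7 activity by luminescence, each scaled to mock wells per plate, duplicates averaged, then robust z-scored over all plates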
Scale: viability robust z-score: higher = more viable cells than screen typical; caspase robust z-score: higher = more caspase 3/7 activity than screen typical
Call rule: 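a knock-down is a hit when classed RV1 or RV2 for lowered viability, or CA1 or CA2 for caspase activation; those lethal without drug were dropped; hits were retested singly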
This is an unselected part of about 18,000 reagents. Over the whole deposit, 450 (2.5%) were called active. 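Single biological run; no consistent viability z cut-off exists, so the class columns, not z-scores, define the calls.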

no.	gene knocked down	viability hit class	caspase hit class	viability robust z-score	caspase robust z-score	activity call
1	EIF2S3 (GeneID 1968)	no change	no change	-3.66	-0.36	inactive
2	CDKN1B (GeneID 1027)	no change	no change	-0.2	-0.92	inactive
3	CLIC3 (GeneID 9022)	no change	no change	-0.54	-0.5	inactive
4	GPS1 (GeneID 2873)	no change	no change	-1.23	1.86	inactive
5	POLR1D (GeneID 51082)	no change	no change	0.98	-1.16	inactive
6	RNFT1 (GeneID 51136)	no change	no change	0.76	-0.4	inactive
7	PRKAB1 (GeneID 5564)	no change	no change	-0.68	4.99	inactive
8	GFRAL (GeneID 389400)	no change	no change	-0.12	-0.51	inactive
9	ZBTB17 (GeneID 7709)	no change	no change	-1.16	1.14	inactive
10	PHOSPHO1 (GeneID 162466)	no change	no change	0.11	-0.87	inactive
11	NEIL2 (GeneID 252969)	no change	no change	0.89	0.24	inactive
12	MLH3 (GeneID 27030)	no change	no change	-0.25	-0.12	inactive
13	LHFPL4 (GeneID 375323)	no change	no change	2.29	-0.24	inactive
14	SLC17A5 (GeneID 26503)	no change	no change	0.38	0.18	inactive
15	CD1A (GeneID 909)	no change	no change	0.07	-0.8	inactive
16	H4C12 (GeneID 8362)	no change	no change	0.74	-0.26	inactive
17	PPP1R3B (GeneID 79660)	no change	no change	0.07	-0.38	inactive
18	PCDHGA11 (GeneID 56105)	no change	no change	-0.32	0.21	inactive
19	HNRNPA3 (GeneID 220988)	no change	no change	-2.46	-1.09	inactive
20	WDR18 (GeneID 57418)	no change	no change	-0.93	1.82	inactive
21	LPGAT1 (GeneID 9926)	no change	no change	0.84	0.48	inactive
22	PRADC1 (GeneID 84279)	no change	no change	-0.41	0.02	inactive
23	ITGB1BP1 (GeneID 9270)	no change	no change	-0.64	-1.15	inactive
24	MAP3K12 (GeneID 7786)	no change	no change	0.76	0.67	inactive
25	GATA5 (GeneID 140628)	no change	no change	-0.1	-0.69	inactive
26	SULT1A4 (GeneID 445329)	no change	no change	0.95	1.23	inactive
27	SERPINC1 (GeneID 462)	no change	no change	0.52	-0.91	inactive
28	DRAM2 (GeneID 128338)	no change	no change	-1.56	0.16	inactive
29	OR2W3 (GeneID 343171)	no change	no change	-0.66	4.79	inactive
30	ADRM1 (GeneID 11047)	no change	no change	-0.06	0.24	inactive
31	PDE7A (GeneID 5150)	no change	no change	0.9	0.53	inactive
32	NYNRIN (GeneID 57523)	no change	no change	-1.61	2.91	inactive
33	ABCA4 (GeneID 24)	no change	no change	-0.38	0.14	inactive
34	TRIM63 (GeneID 84676)	no change	no change	-2.83	2.5	inactive
35	SLITRK5 (GeneID 26050)	no change	no change	1.07	-0.89	inactive
36	SYPL1 (GeneID 6856)	no change	no change	-0.05	-0.81	inactive
37	RHOB (GeneID 388)	no change	no change	0	0.26	inactive
38	COG3 (GeneID 83548)	no change	no change	0.94	-0.1	inactive
39	PPP6C (GeneID 5537)	no change	no change	0.4	-0.46	inactive
